Results: doi:10.1101/2023.02.01.526551
Results are given in words; binding and its absence hold for the method and conditions named. In cells and extracts the contact can be indirect. Some entries that bind do so weakly or less than the wild type.

The chains behind the UniProt entries cited, without tags or fusion partners. Where a name states a change or a piece, a line headed by the entry shows the natural chain unless it says otherwise. Residues count along the entry.
UniProt Q9BXW4, 1-126: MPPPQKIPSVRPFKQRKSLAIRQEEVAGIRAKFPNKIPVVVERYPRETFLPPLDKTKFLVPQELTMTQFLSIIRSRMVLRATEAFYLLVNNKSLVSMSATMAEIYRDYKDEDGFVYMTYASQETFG

Legend:
Test in all cases: co-IP
[1] = molecular target: BAG3 Y247S single LIR mutant (human) (UniProt O95817)
[2] = molecular target: BAG3 Y86S single LIR mutant (human) (UniProt O95817)
[3] = molecular target: wild-type human BAG3 (Bcl-2 associated athanogene 3) (human) (UniProt O95817)
[4] = molecular target: BAG3 Y93S single LIR mutant (human) (UniProt O95817)
[5] = molecular target: BAG3 I454T single LIR mutant (human) (UniProt O95817)
[6] = molecular target: BAG3 Y205S single LIR mutant (human) (UniProt O95817)

Measured: binding

LC3A (microtubule-associated proteins 1A/1B light chain 3A) (from UniProt Q9H492 1-121)
binds: [1] | [2] | [3] | [4] | [5]

LC3C (microtubule-associated proteins 1A/1B light chain 3C) (from UniProt Q9BXW4 1-126)
binds: [1] | [2] | [6] | [3] | [4] | [5]
